In article PMC7381742:
Like-named read-outs stand apart in the source and are kept apart here. Results are given in words; binding and its absence hold for the method and conditions named. In cells and extracts the contact can be indirect. Some binding calls cover weakened binding; strength is not graded here. Each block holds one molecule with its values, some of them ahead of it.

Chains of the proteins cited; added tags and fusions are not shown.
UniProt Q61656: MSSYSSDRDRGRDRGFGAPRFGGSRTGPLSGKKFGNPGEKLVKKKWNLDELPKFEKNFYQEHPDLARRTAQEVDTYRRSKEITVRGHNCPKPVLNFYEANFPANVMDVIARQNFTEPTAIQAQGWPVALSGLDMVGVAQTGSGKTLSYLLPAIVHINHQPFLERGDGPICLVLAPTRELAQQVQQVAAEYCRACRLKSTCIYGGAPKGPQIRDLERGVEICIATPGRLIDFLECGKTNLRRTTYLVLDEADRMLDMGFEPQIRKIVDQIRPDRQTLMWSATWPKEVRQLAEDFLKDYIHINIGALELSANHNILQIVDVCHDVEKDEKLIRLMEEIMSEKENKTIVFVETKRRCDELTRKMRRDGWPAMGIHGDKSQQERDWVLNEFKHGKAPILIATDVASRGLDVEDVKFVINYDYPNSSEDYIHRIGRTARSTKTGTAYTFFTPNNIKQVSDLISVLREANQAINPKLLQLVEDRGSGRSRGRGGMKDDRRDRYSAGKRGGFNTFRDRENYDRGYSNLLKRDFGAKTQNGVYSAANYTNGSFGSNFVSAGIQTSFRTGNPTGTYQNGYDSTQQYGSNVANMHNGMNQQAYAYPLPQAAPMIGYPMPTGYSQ
UniProt P02340: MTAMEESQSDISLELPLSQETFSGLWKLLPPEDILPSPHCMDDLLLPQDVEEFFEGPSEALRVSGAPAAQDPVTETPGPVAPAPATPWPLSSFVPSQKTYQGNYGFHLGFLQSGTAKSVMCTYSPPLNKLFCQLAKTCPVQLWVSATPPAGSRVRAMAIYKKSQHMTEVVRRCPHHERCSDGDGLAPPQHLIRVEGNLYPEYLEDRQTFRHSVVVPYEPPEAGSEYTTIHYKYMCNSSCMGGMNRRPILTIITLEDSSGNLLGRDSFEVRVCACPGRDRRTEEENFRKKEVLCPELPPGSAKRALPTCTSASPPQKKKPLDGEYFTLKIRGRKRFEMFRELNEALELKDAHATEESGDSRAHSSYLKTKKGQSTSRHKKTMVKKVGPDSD

How the values were obtained:
Assay in all cases: co-IP; endogenous proteins of mIMCD3 cell lysate; anti-p68, anti-Drosha or anti-p53 antibody (isotype IgG as control) coupled to protein A agarose beads, lysate incubated overnight at 4 °C, beads washed with lysis buffer containing an additional 300 mM NaCl, Western blot
[1] = target: p68 RNA helicase (DEAD-box protein 5) (mouse (endogenous in mIMCD3)) (UniProt Q61656)
[2] = target: T1, Drosha (mouse (endogenous in mIMCD3)) (UniProt Q5HZJ0)
T1 sequence: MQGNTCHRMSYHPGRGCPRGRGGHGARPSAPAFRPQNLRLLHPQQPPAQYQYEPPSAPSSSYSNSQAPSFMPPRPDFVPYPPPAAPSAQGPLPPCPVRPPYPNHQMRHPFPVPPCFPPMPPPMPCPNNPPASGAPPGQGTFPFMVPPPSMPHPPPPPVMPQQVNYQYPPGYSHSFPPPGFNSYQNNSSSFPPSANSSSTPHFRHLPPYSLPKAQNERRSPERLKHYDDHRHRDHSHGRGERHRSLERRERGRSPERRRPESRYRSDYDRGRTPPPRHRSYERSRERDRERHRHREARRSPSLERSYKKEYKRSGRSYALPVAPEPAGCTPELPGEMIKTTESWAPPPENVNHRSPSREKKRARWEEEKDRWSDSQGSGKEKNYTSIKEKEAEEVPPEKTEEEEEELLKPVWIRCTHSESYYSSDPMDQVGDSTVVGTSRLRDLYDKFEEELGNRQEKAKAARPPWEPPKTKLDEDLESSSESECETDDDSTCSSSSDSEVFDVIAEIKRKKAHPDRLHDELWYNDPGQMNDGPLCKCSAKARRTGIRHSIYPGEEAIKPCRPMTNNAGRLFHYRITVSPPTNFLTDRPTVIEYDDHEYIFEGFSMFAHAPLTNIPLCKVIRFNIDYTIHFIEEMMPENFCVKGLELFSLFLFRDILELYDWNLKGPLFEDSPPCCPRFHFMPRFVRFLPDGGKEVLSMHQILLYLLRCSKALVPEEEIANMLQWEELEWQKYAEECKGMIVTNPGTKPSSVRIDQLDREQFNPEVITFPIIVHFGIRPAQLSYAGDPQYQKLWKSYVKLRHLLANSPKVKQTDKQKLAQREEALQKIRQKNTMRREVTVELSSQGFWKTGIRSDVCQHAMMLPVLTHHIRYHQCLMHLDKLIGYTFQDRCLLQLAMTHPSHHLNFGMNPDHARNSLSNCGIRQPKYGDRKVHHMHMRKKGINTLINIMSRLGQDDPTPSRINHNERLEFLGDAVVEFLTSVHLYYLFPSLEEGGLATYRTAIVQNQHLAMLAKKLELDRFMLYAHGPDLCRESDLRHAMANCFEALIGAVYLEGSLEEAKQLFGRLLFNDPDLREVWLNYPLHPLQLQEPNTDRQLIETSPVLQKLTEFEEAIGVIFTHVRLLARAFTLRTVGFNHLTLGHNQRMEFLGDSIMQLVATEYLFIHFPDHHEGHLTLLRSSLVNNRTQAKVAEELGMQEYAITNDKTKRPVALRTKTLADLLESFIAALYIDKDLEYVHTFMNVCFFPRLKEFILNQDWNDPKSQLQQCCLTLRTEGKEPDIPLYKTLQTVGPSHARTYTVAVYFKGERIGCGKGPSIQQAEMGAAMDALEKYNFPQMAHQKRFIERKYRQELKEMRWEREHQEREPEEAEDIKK

[3] = target: p68 RNA helicase (DEAD-box protein 5) (mouse (endogenous in mIMCD3)) (UniProt Q61656); remark: listed apart in the source
[4] = target: p53 (mouse (endogenous in mIMCD3)) (UniProt P02340)

binding [1]: binds
binding [2]: binds
Molecule: p53 (from UniProt P02340 1-390)

binding [3]: binds
binding [4]: binds
B1: Drosha (protein, UniProt Q5HZJ0 1-1373)
chain: T1 sequence
